One substance from paper PMC4257004 can be followed below.

The chains behind the UniProt entries cited, without tags or fusion partners.
UniProt Q9VDJ9: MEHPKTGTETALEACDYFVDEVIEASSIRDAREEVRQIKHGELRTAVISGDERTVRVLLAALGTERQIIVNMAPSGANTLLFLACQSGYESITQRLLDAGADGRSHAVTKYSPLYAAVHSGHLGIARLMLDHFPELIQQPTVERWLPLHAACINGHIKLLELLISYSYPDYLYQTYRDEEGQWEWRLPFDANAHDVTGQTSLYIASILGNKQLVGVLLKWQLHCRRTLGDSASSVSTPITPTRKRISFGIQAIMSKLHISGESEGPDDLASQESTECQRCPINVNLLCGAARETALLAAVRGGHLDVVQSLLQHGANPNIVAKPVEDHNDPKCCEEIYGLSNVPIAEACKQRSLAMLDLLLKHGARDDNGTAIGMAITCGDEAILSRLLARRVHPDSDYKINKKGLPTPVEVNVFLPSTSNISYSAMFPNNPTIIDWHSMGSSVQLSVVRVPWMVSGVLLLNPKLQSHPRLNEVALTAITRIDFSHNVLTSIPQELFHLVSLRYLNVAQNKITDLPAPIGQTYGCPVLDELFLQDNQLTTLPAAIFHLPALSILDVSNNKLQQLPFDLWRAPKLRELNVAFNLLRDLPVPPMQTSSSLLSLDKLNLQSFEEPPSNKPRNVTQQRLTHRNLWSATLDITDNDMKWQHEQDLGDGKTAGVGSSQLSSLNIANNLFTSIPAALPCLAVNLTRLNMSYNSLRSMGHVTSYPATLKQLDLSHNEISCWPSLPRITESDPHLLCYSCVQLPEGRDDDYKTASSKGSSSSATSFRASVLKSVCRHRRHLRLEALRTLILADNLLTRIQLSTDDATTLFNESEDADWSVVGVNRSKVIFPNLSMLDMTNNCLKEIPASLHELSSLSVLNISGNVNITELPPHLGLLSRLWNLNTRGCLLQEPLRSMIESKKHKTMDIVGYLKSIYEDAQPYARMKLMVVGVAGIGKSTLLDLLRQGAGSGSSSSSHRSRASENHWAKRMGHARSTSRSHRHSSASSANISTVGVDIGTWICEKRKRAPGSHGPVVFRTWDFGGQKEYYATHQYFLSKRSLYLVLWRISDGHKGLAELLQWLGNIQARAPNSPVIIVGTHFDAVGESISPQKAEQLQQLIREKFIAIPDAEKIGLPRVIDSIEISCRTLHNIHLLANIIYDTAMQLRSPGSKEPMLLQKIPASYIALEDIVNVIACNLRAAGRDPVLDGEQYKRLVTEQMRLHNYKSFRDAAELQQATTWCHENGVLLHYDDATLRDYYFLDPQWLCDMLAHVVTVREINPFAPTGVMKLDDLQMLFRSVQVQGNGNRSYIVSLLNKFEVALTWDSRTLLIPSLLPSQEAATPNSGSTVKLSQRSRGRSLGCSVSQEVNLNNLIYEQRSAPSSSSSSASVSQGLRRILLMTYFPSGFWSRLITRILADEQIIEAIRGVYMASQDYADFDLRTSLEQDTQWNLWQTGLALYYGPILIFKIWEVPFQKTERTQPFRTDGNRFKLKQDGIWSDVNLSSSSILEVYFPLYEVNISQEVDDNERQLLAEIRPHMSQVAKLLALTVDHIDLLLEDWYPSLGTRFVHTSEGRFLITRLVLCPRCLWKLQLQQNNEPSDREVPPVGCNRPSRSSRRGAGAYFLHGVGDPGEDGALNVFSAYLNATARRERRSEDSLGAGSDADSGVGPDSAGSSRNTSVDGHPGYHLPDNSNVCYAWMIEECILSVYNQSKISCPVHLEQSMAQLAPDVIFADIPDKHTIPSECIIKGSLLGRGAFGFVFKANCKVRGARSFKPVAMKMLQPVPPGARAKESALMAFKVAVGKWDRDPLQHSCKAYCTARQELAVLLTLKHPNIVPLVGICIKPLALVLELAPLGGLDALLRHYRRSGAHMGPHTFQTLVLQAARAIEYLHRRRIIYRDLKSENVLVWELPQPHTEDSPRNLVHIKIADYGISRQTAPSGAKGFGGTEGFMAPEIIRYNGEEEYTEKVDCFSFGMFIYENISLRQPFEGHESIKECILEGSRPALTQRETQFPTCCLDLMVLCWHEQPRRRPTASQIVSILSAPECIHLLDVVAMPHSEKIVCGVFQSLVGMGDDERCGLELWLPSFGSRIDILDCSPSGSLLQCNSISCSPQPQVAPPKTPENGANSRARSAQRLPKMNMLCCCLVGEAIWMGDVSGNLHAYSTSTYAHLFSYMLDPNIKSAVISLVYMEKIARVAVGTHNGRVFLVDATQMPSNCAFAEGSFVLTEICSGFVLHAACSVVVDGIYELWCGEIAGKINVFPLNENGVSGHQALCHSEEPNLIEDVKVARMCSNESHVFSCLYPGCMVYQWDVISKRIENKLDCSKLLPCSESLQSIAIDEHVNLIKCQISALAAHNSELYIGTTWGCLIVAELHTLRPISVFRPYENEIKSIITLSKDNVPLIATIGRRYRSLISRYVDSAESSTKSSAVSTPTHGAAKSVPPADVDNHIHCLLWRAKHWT

The target of experiment [1] is T1, Rab11-YFP (Drosophila) (UniProt O18335).
T1 sequence: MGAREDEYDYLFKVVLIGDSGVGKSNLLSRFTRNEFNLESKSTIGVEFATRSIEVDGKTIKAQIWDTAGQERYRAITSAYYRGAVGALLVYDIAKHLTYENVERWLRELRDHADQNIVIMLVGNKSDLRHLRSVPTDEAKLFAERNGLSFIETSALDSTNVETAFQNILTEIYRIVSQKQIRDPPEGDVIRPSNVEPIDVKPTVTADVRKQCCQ
The experiment in a line: co-IP; lysates of transiently transfected Drosophila S2 cells in RIPA buffer with protease inhibitors; Dynabeads with rabbit anti-GFP or mouse anti-Myc; western blot with anti-Myc and anti-GFP. A general note: In western blotting, separated proteins are transferred to a membrane and probed.

For experiment [2], the target named is T2, Rab5-YFP (Drosophila) (UniProt Q9V3I2).
T2 sequence: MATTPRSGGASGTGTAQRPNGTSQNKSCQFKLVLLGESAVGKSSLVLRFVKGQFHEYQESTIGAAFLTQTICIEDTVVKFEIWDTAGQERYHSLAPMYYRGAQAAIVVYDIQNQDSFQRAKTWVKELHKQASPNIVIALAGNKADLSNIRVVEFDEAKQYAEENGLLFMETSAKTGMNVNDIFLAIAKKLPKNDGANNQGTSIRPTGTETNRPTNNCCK
Described as above.

No constants are given. Whether binding was seen depends on the method and setting. Binding seen in cells or lysates may run through a third protein. Some results given as binding are weak or reduced against the parent protein; the word gives no strength. Where a sequence is shown, tags or fusion partners need not be part of it.

As to “Drosophila Lrrk, 9myc-tagged (pMT-lrrk-9myc) (from UniProt Q9VDJ9 1-2445)”, the binding result in experiment [1] is on record as “no binding”; in experiment [2], “binds”.
